Test results: the supplement of paper PMC12823440, “Inhibitors supercharge kinase turnover through native proteolytic circuits” (Nature, 2025)
Structures can show the parent of a compound that is named as a salt. Some of the results follow. The calls rarely recur for the same compound in another form.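 In K562 cells expressing nanoluciferase-fused kinases, luminescence was recorded at 4 h intervals between 2 and 18 h, normalized as percent of control with DMSO at 100% and a positive control at 0%. A significant (2 sigma) signal drop marks a time point as decreased. The authors' rule for a hit is not shown and takes in more than the number of time points.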

The molecules below were run against EGFR_L861Q (UniProt P00533) (assay: kinase-Nluc reporter destabilization hit call (1 = scored as downregulated) (binary); higher = compound decreases kinase abundance). Conditions: 10 µM; K562; 2-18 h.

kinase-Nluc reporter destabilization hit call, inactive:
CS(=O)(=O)N1CCN(Cc2cc3nc(-c4cccc5[nH]ncc45)nc(N4CCOCC4)c3s2)CC1 [Pictilisib (dimethanesulfonate)] 0
N#CCNC(=O)c1ccc(-c2ccnc(Nc3ccc(N4CCOCC4)cc3)n2)cc1 [Momelotinib sulfate] 0
C[C@H](CCC(=O)NCCS(=O)(=O)O)[C@H]1CC[C@H]2[C@@H]3[C@@H](O)C[C@@H]4C[C@H](O)CC[C@]4(C)[C@H]3CC[C@]12C [Tauroursodeoxycholate (sodium)] 0
CN(C)C(=N)NC(=N)N [Metformin (hydrochloride)] 0
C/C=C1\C(=O)C[C@H]2[C@@H]3CCC4=CC(=O)CC[C@]4(C)[C@H]3CC[C@]12C [Guggulsterone] 0
Cn1cc(-c2cnc3ccc4ccc(CS(=O)(=O)NCc5ccccn5)cc4c(=O)c3c2)cn1 [MK-8033 (hydrochloride)] 0
C/C=C1\C(=O)C[C@H]2[C@@H]3CCC4=CC(=O)CC[C@]4(C)[C@H]3CC[C@]12C [(Z)-Guggulsterone] 0
COc1cc2c(-c3cnn4cc(N5CCC(N6CCN(C)CC6)CC5)cnc34)ccnc2cc1F 0

Each molecule was assayed against EGFR_T790M (UniProt P00533) in the same assay as above. Conditions: 2.5 µM; K562; 2-18 h.

kinase-Nluc reporter destabilization hit call, inactive:
C[C@H](Nc1cc(-c2cnn(C)c2)cc(Nc2cnccn2)n1)c1ccc(F)cc1 [Ilginatinib hydrochloride] 0
Cc1cccc(/C=N/Nc2cc(N3CCOCC3)nc(OCCc3ccccn3)n2)c1 [Apilimod] 0
Cc1ccc(NC(=O)c2ccc(CN3CCN(C)CC3)cc2)cc1Nc1nc(-c2cccnc2)cs1 [Masitinib (mesylate)] 0
COc1cc2nccc(Oc3ccc(NC(=O)C4(C(=O)Nc5ccc(F)cc5)CC4)cc3)c2cc1OC [Cabozantinib] 0
Cc1cccc(-c2[nH]c(CNc3ccccc3F)nc2-c2ccc3ncnn3c2)n1 [Vactosertib (Hydrochloride)] 0
CC(C)Oc1ccc(-c2nn([C@@H](C)c3oc4ccc(F)cc4c(=O)c3-c3cccc(F)c3)c3ncnc(N)c23)cc1F [Umbralisib (hydrochloride)] 0
CN(C)C(=O)c1cc2cnc(Nc3ccc(N4CCNCC4)cn3)nc2n1C1CCCC1 [Ribociclib succinate hydrate] 0
O=C(Nc1ccncc1)Nc1ccc(-c2nc(N3CCOCC3)nc(N3C4CCC3COC4)n2)cc1 [PKI-179 (hydrochloride)] 0
C=CC(=O)Nc1cc(Nc2nccc(-c3cn(C4CC4)c4ccccc34)n2)c(OC)cc1N(C)CCN(C)C [Almonertinib (hydrochloride)] 0
C=CC(=O)Nc1cc2c(Nc3ccc(F)c(Cl)c3)ncnc2cc1C#CC(C)(C)N1CCN(C)CC1 [AV-412 (free base)] 0
CNC(=O)c1cc(Oc2ccc(NC(=O)Nc3ccc(Cl)c(C(F)(F)F)c3)c(F)c2)ccn1 [Regorafenib] 0

Reprinted at random: 2 entries already listed.
kinase-Nluc reporter destabilization hit call, inactive:
COc1cc2nccc(Oc3ccc(NC(=O)C4(C(=O)Nc5ccc(F)cc5)CC4)cc3)c2cc1OC [Cabozantinib] 0
CC(C)Oc1ccc(-c2nn([C@@H](C)c3oc4ccc(F)cc4c(=O)c3-c3cccc(F)c3)c3ncnc(N)c23)cc1F [Umbralisib (hydrochloride)] 0
